This passage reports binding results from patent US20240360204A1 (UNITED STATES GOVERNMENT AS REPRESENTED BY THE DEPARTMENT …, published 2024).

Results are given in words; binding and its absence hold for the method and conditions named.

For this test, the target named is streptavidin (UniProt P22629). The experiment in a line: Western blot; huMAb as primary antibody, goat anti-human IgG-HRP for detection. On the technique in general: Immunoblotting shows a protein as a band on a membrane.

B1: hu55L17κ (antibody, human IgG1, V domains shown)
VH: QVQLVQSGAEVKKPGSSVKVSCRPPGGTLSNYAINWVRQAPGQGLEWMGGIVPMFSTTKYAQKFQGRLTLTADLSTITAHMELNRLTSEDTAVYYCARDLPAPYCSADLCYKVLDAFDVWGQGTLVTVSS
VL: EIVLTQSPSSLSASVGDRVTITCQASQDISNYLNWYQQKPGKAPKLLIYKASSLESGVPSRFSGSGSGTEFTLTITRLQPDDFATYYCQQYEEYLRYSFGQGTKLEIK
notes: also called 55L17 IgG antibody
Regarding B1, the binding result was “no binding (tested: primary antibody 1:100)”.

B2: hu55C11λ (antibody, human IgG1, V domains shown)
VH: QVQLVESGGGLVKPGGSLRLSCAASGFTFSSHSMNWVRQTPGKGLEWVSSINTISTFIYYADSVKGRFTVSRDNARNSLFLQMNTLTADDTGVYYCARERGNRFCDGDCYSGTTFDYWGPGTLVTVSS
VL: QPVLTQPPSVSVAPGRTSRITCEENNIGTKNVHWYQQKPGQAPLLVVHDDSDRPSGIPERFSGSNSGNTATLTISRVEAGDEADYYCQVWDSDNDRWLFGGGTRLTVLG
notes: also called 55c11 IgG antibody
As for B2, the binding entry was “no binding (tested: primary antibody 1:100)”.

B3: hu55G4λ (antibody, human IgG1, V domains shown)
VH: EVQLVQSGGGAVQPGRSLRLSCAVSGFTFSNFPMHWVRQAPGRGLEWVAVISHDETMIYYLDSVKGRFTISRDNSRNIVYLQMHSLRVEDTAVYYCARDTGVCSGGYCYTPRYFDQWGQGTLVTVSS
VL: QPVLTQPPSVSVAPGKTADITCGGDNIGRKHVHWYRQRPSQAPLLVIYDDSDRPSGIPERLSGINSGNTATLTISGVEVGDEADYYCQVWDNDAEQWVFGGGTKLTV
notes: also called 55G4 IgG antibody; 55LG4
With B3, the binding result is reported as “no binding (tested: primary antibody 1:100)”.
